According to publication PMC10576769 (Nature Communications, 2023):
These are yes or no findings as the source states them, for the method shown.

Sequences of proteins named here, by UniProt entry; tags and fusion partners are left off. Residues count along the entry.
UniProt Q0TV31, residues 29-398: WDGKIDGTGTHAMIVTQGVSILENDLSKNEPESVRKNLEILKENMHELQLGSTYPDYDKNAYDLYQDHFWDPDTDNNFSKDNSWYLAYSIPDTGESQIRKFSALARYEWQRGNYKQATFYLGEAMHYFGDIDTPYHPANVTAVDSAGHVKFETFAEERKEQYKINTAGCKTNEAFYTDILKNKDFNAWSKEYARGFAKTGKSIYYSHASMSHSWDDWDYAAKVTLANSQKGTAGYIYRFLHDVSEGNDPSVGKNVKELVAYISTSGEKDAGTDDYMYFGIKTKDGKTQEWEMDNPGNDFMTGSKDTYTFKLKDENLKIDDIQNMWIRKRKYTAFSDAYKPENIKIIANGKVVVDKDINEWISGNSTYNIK

Key:
[1] = molecular target: phospholipase C from Clostridium perfringens (CpPC-PLC), wild type, mature (Clostridium perfringens) (UniProt Q0TV31); assay: SEC; both purified
[2] = molecular target: phospholipase C from Clostridium perfringens (CpPC-PLC), wild type, mature (Clostridium perfringens) (UniProt Q0TV31); assay: native gel or EMSA; both purified

phospholipase C from Clostridium perfringens (CpPC-PLC), wild type, mature (from UniProt Q0TV31 29-398) (enzyme)
binding [1]: no binding
binding [2]: no binding
